# Experimental data: PMC8707212, “Immunosuppressive Sesquiterpenoids from the Edible Mushroom Craterellus odoratus” (Journal of Fungi, 2021)
# Test system: B lymphocyte cells
# Experiment: LPS-induced B-cell proliferation ([3H]-thymidine uptake)
# Type: cell-based, BALB/c mice
# Conditions: SI = CC50/IC50
# Procedure: Female BALB/c mice were sacrificed by cervical dislocation, and their spleens were aseptically removed. After cell debris, mononuclear cell suspensions were prepared, and clumps were removed. Erythrocytes were depleted with ammonium chloride buffer solution. Lymphocytes were washed and resuspended in RPMI 1640 medium supplemented with 10% FBS, penicillin (100 U/mL), and streptomycin ([…]).
# As mentioned above, fresh spleen cells were obtained from female BALB/c mice (18–20 g). Similarly, the 5 × 10^5 spleen cells were cultured at the same conditions. The cultures, with or without various concentrations of compounds, were stimulated with 5 µg/mL of concanavalin A (ConA) to induce the T cells’ proliferative response or 10 µg/mL of lipopolysaccharide (LPS) to induce B cells’ proliferative response. Proliferation was assessed in terms of uptake of [^3H]-thymidine during 8 h of pulsing with 25 µL/well of [^3H]-thymidine, then cells will be harvested onto glass fiber filters. A Beta scintillation counter was used to count the incorporated radioactivity. Cells treated without any stimuli were used as a negative control. The immunosuppressive activity was expressed as the concentration of the compound that inhibited T or B cell proliferation to 50% (IC50) of the control value. Both the cytotoxicity and proliferation assessment were repeated twice.
row,SMILES,LPS-Induced B-Cell Proliferation SI
1,"CC(=CC(O)CC12COC3(CO)CCC1CC32)C(=O)O (centres unmarked) [Compound 10, Craterodoratin J]",>2.06
2,"CC(=CCCC1(C)C2CCC(CO)(C2)C1O)C(=O)O (centres unmarked) [Compound 3, Craterodoratin C]",>3.17
3,"CC(=CCCC1(C)C2CCC(CO)C1C2)C(=O)O (centres unmarked) [Compound 13, Craterodoratin M]",>2.59
4,"CC(=CCCC1(C)C2CCC(CO)C1(O)C2)C(=O)O (centres unmarked) [Compound 14, Craterodoratin N]",>3.02
5,"C=C1C2CN(CC(=O)O)CC3C2C(C(C)C)CCC13C (centres unmarked) [Compound 19, Craterodoratin S]",>1.76
6,"CC(=CC(=O)CC12C(=O)OC3(C)CCC1CC32)C(=O)O (centres unmarked) [Compound 12, Craterodoratin L]",>2.92
7,"CC(=CC1CC23C4CCC(C)(OC2O1)C3C4)C(=O)O (centres unmarked) [Compound 23, donacinoic acid A]",>3.02
8,"C=C1CCC2(O)CC1C2(C)CCC=C(C)C(=O)O (centres unmarked) [Compound 15, Craterodoratin O]",>2.34
